The values below come from the supplement of paper PMC8090911.

Counter-ions that a name gives are not always drawn. This is one part of the list. Single values are uncertain, as repeats are few or missing.

This test deals with p95-ErbB2-MCF7. Briefly: perinuclear lysosome accumulation (PNLA, size of LAMP2 puncta), robust Z-score vs plate median; higher = more perinuclear lysosome accumulation (reversal of invasive lysosome distribution). As to conditions: 5 µM; 24 h.
As to `CC/C(=C(\c1ccccc1)c1ccc(OCCN(C)C)cc1)c1ccccc1` [Tamoxifen citrate], the perinuclear lysosome accumulation was 1.38e-05.

As for `CCc1oc2ccccc2c1C(=O)c1cc(Br)c(O)c(Br)c1` [Benzbromarone], the perinuclear lysosome accumulation worked out at 0.428.

On to `C#C[C@]1(O)CC[C@H]2[C@@H]3CCC4=C(CCC(=O)C4)[C@H]3CC[C@@]21C` [Norethynodrel], for which the perinuclear lysosome accumulation was -1.08.

For `CC[N+](CC)(CC)CCOc1cccc(OCC[N+](CC)(CC)CC)c1OCC[N+](CC)(CC)CC` [Gallamine triethiodide], the perinuclear lysosome accumulation worked out at 0.646.

`CCOC(=O)[N-]c1c[n+](N2CCOCC2)no1` [Molsidomine]: the perinuclear lysosome accumulation turned out to be 0.435.

Take `NS(=O)(=O)c1cc2c(cc1Cl)NC(CC1CCCC1)NS2(=O)=O` (centres undefined) [Cyclopenthiazide]: the perinuclear lysosome accumulation was -1.21.

For `CC(C)(C)NCC(O)c1cc(O)cc(O)c1` (centres undefined) [Terbutaline hemisulfate], the perinuclear lysosome accumulation was -0.111.

As to `O=C(OCCOCCO)c1ccccc1Nc1cccc(C(F)(F)F)c1` [Etofenamate], the perinuclear lysosome accumulation is -0.703.

Consider `O=C(O)[C@H]1/C(=C/CO)O[C@@H]2CC(=O)N21` [Potassium clavulanate], for which the perinuclear lysosome accumulation was 0.965.

For the compound `Cc1cnc(C(=O)O)c[n+]1[O-]` [Acipimox], the perinuclear lysosome accumulation is -0.481.

Consider `CC(C)(C)NC[C@H](O)COc1ccccc1C1CCCC1` [Penbutolol sulfate], for which the perinuclear lysosome accumulation is 1.79.

As to `COc1ccc(C(=O)c2ccccc2O)c(O)c1` [Dioxybenzone], the perinuclear lysosome accumulation turned out to be 0.382.

Take `Cc1cnc(C(=O)NCCc2ccc(S(=O)(=O)NC(=O)NC3CCCCC3)cc2)cn1` [Glipizide]: the perinuclear lysosome accumulation is -1.67.

Regarding `CCC1NC(=O)c2cc(S(N)(=O)=O)c(Cl)cc2N1` (centres undefined) [Quinethazone], the perinuclear lysosome accumulation came out at 0.0378.

On to `COc1ccccc1N1CCN(CCCCNC(=O)c2ccc3ccccc3c2)CC1`, for which the perinuclear lysosome accumulation worked out at 1.02.

For the compound `CC(O)(P(=O)(O)O)P(=O)(O)O` [Etidronic acid, disodium salt], the perinuclear lysosome accumulation is -1.01.

As for `CCN(CC)CCOc1ccc(C(=C(Cl)c2ccccc2)c2ccccc2)cc1` [Clomiphene citrate (Z,E)], the perinuclear lysosome accumulation was -0.082.

As for `CCCCNc1ccc(C(=O)OCCN(C)C)cc1`, the perinuclear lysosome accumulation was 0.129.

For `CN(C)[C@@H]1C(O)=C(C(=O)NCNCCCC[C@H](N)C(=O)O)C(=O)[C@@]2(O)C(O)=C3C(=O)c4c(O)cccc4[C@@](C)(O)[C@H]3C[C@@H]12` [Lymecycline], the perinuclear lysosome accumulation was determined as 0.761.

Consider `CN1CCOC(c2ccccc2)c2ccccc2C1` (centres undefined) [Nefopam hydrochloride], for which the perinuclear lysosome accumulation is -0.661.

For the compound `CN1CCC(=C2c3ccccc3CCc3sccc32)CC1` [Pizotifen malate], the perinuclear lysosome accumulation is -1.73.

With `Cc1ccccc1C(OCCN(C)C)c1ccccc1` (centres undefined) [Orphenadrine hydrochloride], the perinuclear lysosome accumulation was -0.456.

On to `O=C1C(O)=C([C@H]2CC[C@H](c3ccc(Cl)cc3)CC2)C(=O)c2ccccc21` [Atovaquone], for which the perinuclear lysosome accumulation was found to be 1.29.

Turning to `CC(C)NCC(O)c1ccc(O)c(O)c1` (single isomer, unassigned; (-)) [(-)-Isoproterenol hydrochloride], the perinuclear lysosome accumulation was found to be 1.09.

Regarding `NC(=O)NC1NC(=O)NC1=O` (centres undefined) [Allantoin], the perinuclear lysosome accumulation stood at 2.47.

As to `CN(C)CCOC(c1ccc(Cl)cc1)c1ccccn1` (centres undefined) [Carbinoxamine maleate salt], the perinuclear lysosome accumulation is -0.593.

For the compound `O=C1CCc2ccc(OCCCCN3CCN(c4cccc(Cl)c4Cl)CC3)cc2N1` [Aripiprazole], the perinuclear lysosome accumulation is -0.0423.

For the compound `COC(=O)C1=C(C)NC(C)=C(C(=O)OCC(C)C)C1c1ccccc1[N+](=O)[O-]` (centres undefined) [Nisoldipine], the perinuclear lysosome accumulation turned out to be 1.35.

For `CN1CCN(c2c(F)cc3c(=O)c(C(=O)O)cn4c3c2SCC4)CC1` [Rufloxacin], the perinuclear lysosome accumulation is -0.257.

As to `CCC(C)n1ncn(-c2ccc(N3CCN(c4ccc(OCC5COC(Cn6cncn6)(c6ccc(Cl)cc6Cl)O5)cc4)CC3)cc2)c1=O` (centres undefined) [Itraconazole], the perinuclear lysosome accumulation amounted to 3.8.

Turning to `Cc1cccc(Nc2ccccc2C(=O)O)c1C` [Mefenamic acid], the perinuclear lysosome accumulation was -1.2.

In the case of `C[n+]1ccccc1/C=N/O` [Pralidoxime chloride], the perinuclear lysosome accumulation came out at 0.725.

On to `O=C(O)CCNC(=O)c1ccc(/N=N/c2ccc(O)c(C(=O)O)c2)cc1` [Balsalazide Sodium], for which the perinuclear lysosome accumulation is -0.364.

Turning to `O=C1OC(CN2CCOCC2)CN1/N=C/c1ccc([N+](=O)[O-])o1` (centres undefined) [Furaltadone hydrochloride], the perinuclear lysosome accumulation is -0.225.

Regarding `O=C1NCCN1CCN1CCC(c2cn(-c3ccc(F)cc3)c3ccc(Cl)cc23)CC1` [Sertindole], the perinuclear lysosome accumulation was 2.52.

Take `O=C1CCC(N2C(=O)c3ccccc3C2=O)C(=O)N1` (centres undefined) [Thalidomide]: the perinuclear lysosome accumulation was -0.873.

With `Clc1ccc(C(Cn2ccnc2)OCc2csc3c(Cl)cccc23)c(Cl)c1` (centres undefined) [Sertaconazole nitrate], the perinuclear lysosome accumulation is -0.423.

As to `CC(=O)OCC1=C(C(=O)O)N2C(=O)[C@@H](NC(=O)Cc3cccs3)[C@H]2SC1` [Cephalothin sodium salt], the perinuclear lysosome accumulation stood at 0.97.

In the case of `CCN(CC)CCNC(=O)COc1ccc(OC)cc1` [Mefexamide hydrochloride], the perinuclear lysosome accumulation was found to be 0.155.

In the case of `CCCCc1nc(Cl)c(CO)n1Cc1ccc(-c2ccccc2-c2nnn[nH]2)cc1` [Losartan], the perinuclear lysosome accumulation was 0.417.

`CC1(C)S[C@@H]2[C@H](NC(=O)Cc3ccccc3)C(=O)N2[C@H]1C(=O)O` [Benzylpenicillin sodium]: the perinuclear lysosome accumulation is 0.99.

Take `CC1(C)S[C@@H]2[C@H](NC(=O)Cc3ccccc3)C(=O)N2[C@H]1C(=O)O` [Benzathine benzylpenicillin]: the perinuclear lysosome accumulation is -1.56.

`CCC(=O)OCC(=O)[C@@]1(OC(=O)CC)[C@@H](C)C[C@H]2[C@@H]3CCC4=CC(=O)C=C[C@]4(C)[C@@]3(Cl)[C@@H](O)C[C@@]21C` [Beclomethasone dipropionate]: the perinuclear lysosome accumulation was -0.584.

`CCN(CC)Cc1cc(Nc2ccnc3cc(Cl)ccc23)ccc1O` [Amodiaquin dihydrochloride dihydrate]: the perinuclear lysosome accumulation is 0.342.

With `COc1ccccc1N1CCN(CCCNc2cc(=O)n(C)c(=O)n2C)CC1` [Urapidil hydrochloride], the perinuclear lysosome accumulation was found to be 0.721.

As for `Cn1c(=O)c2c(ncn2CCO)n(C)c1=O` [Etofylline], the perinuclear lysosome accumulation was -1.27.

As for `CC(C)NCC(O)c1cc(O)cc(O)c1` (centres undefined) [Metaproterenol sulfate, orciprenaline sulfate], the perinuclear lysosome accumulation was -0.78.

With `C#CCN(C)CCCOc1ccc(Cl)cc1Cl` [Clorgyline hydrochloride], the perinuclear lysosome accumulation is -0.373.

For the compound `CC(=O)SCC(Cc1ccccc1)C(=O)NCC(=O)OCc1ccccc1` (centres undefined) [Racecadotril], the perinuclear lysosome accumulation turned out to be 1.24.
